Reference: PubChem BioAssay AID248 (DTP/NCI, 2004)
The list does not hold the whole screen: it gathers tests that were run many times, whatever their T/C, doses with no T/C, and many T/C values between a quarter and a half above the control. Further doses and runs are listed elsewhere. T/C is the treated group as % of the vehicle group. Some entries give survivors of the animals treated and no T/C: the source files T/C as zero there, which appears to mark a toxic dose or a test without result, not a measured value. Some doses without a T/C left all or most animals alive at the check, yet need not have been tolerated: survival well below the control is almost never listed, so the zero probably covers shortened survival too. Counts of survivors are from the toxicity check (mostly the fifth day) where no day follows; animals may have died later. Schedule codes are those of the source, read here as Q, the interval in days (D) or hours (H), X, the number of doses. Some entries hold several experiments; the results are listed from low to high. Some schedules carry Z or #; the key to these is not given. For survival time, this PubChem deposit counts one and a half times the control or more as active, and values a quarter to a half above the control carry no call in these data; other NCI protocols may use other cut-offs. Some T/C values are followed by the survivors on the day toxicity was checked, most often the fifth; where none is given, no animal had died by that day.

System: L1210 leukemia ip in BDF1 mice, survival T/C
Assay: NCI In Vivo Anticancer Drug Screen. Data for tumor model L1210 Leukemia (intraperitoneal) in B6D2F1 (BDF1) mice
Details: T/C endpoint: mean survival time, higher T/C = longer survival
[1] = dose: 200.0 mg/kg/injection, schedule: Q01DX001 (ip), vehicle: saline
[2] = dose: 400.0 mg/kg/injection, schedule: Q01DX001 (ip), vehicle: saline
[3] = dose: 400.0 mg/kg/injection, schedule: Q04DX003 (ip), vehicle: saline with Tween-80
[4] = dose: 200.0 mg/kg/injection, schedule: Q01DX009 (ip), vehicle: saline
[5] = dose: 400.0 mg/kg/injection, schedule: Q04DX002 (ip), vehicle: saline
[6] = dose: 100.0 mg/kg/injection, schedule: Q04DX003 (ip), vehicle: saline with Tween-80
[7] = dose: 200.0 mg/kg/injection, schedule: Q04DX003 (ip), vehicle: saline with Tween-80
[8] = dose: 400.0 mg/kg/injection, schedule: Q01DX009 (ip), vehicle: saline
[9] = dose: 100.0 mg/kg/injection, schedule: Q01DX001 (ip), vehicle: Klucel (hydroxypropylcellulose) (HPC)
[10] = dose: 200.0 mg/kg/injection, schedule: Q01DX001 (ip), vehicle: Klucel (hydroxypropylcellulose) (HPC)
[11] = dose: 400.0 mg/kg/injection, schedule: Q01DX001 (ip), vehicle: Klucel (hydroxypropylcellulose) (HPC)
[12] = dose: 150.0 mg/kg/injection, schedule: Q01DX001 (ip), vehicle: other
[13] = dose: 300.0 mg/kg/injection, schedule: Q01DX001 (ip), vehicle: other

## O=S(=O)(O)CS(=O)(=O)O
dose: 80.0 mg/kg/injection, schedule: Q01DX001 (ip), vehicle: saline
  survivor count: 1 of 6
dose: 100.0 mg/kg/injection, schedule: Q01DX001 (ip), vehicle: saline
  survivor count: 1 of 6
[1]
  survivor count: 0 of 6
[2]
  survivor count: 0 of 6

## C=CC[N+](C)(CC=C)CC[N+](C)(CC=C)CC=C
dose: 200.0 mg/kg/injection, schedule: Q01DX009 (ip), vehicle: water
  survivor count: 2 of 6
dose: 400.0 mg/kg/injection, schedule: Q04DX003 (ip), vehicle: water
  survivor count: 1 of 6

## CC1=CC(=O)C(C)(C(Cl)Cl)C=C1 (stereo not drawn)
[3]
  survivor count: 0 of 6

## CCCNC(Cc1ccccc1)c1ccco1 (stereo not drawn)
[4]
  survivor count: 0 of 3
[5]
  survivor count: 3 of 3

## O=C(O)c1ccc(Nc2c3ccccc3nc3ccccc23)cc1
dose: 200.0 mg/kg/injection, schedule: Q01DX009 (ip), vehicle: Klucel (hydroxypropylcellulose) (HPC)
  survivor count: 3 of 3

## CCOc1c(Cl)cc(Cl)cc1C(c1ccccc1S(=O)(=O)O)c1cc(Cl)cc(Cl)c1OCC
[6]
  survivor count: 1 of 6
[7]
  survivor count: 0 of 6
[3]
  survivor count: 0 of 6

## CCOC(=O)/C(C#N)=C(/C)C(C)C(=O)OCC (stereo not drawn)
[4]
  survivor count: 1 of 6
[8]
  survivor count: 0 of 6

## Cc1ccc(CN(C)C)c(C(O)c2ccccc2)c1 (stereo not drawn)
[1]
  survivor count: 1 of 4
[2]
  survivor count: 0 of 4

## C#CCOCCC(=O)O
dose: 400.0 mg/kg/injection, schedule: Q04DX003 (ip), vehicle: acetone
  survivor count: 0 of 6

## CCCCCCCCCCCCCCCc1cc(=O)n(-c2ccc(NC(=O)/C=C/C(=O)O)cc2)n1C
dose: 400.0 mg/kg/injection, schedule: Q04DX003 (ip), vehicle: Klucel (hydroxypropylcellulose) (HPC)
  survivor count: 3 of 6

## O=S(=O)(Cl)c1ccccc1Cl
[9]
  survivor count: 2 of 6
[10]
  survivor count: 0 of 6

## O=C(CCN1CC=C(c2ccccc2)CC1)c1ccc(Oc2ccccc2)cc1
[3]
  survivor count: 1 of 6

## CCCCCCc1nc2nc(Cl)c(Cl)nc2[nH]1
[7]
  survivor count: 6 of 6
[3]
  survivor count: 6 of 6

## Cc1c(N)nc(N)nc1C(=O)O
[9]
  survivor count: 1 of 5
[10]
  survivor count: 0 of 6
[11]
  survivor count: 1 of 6

## COc1cc2ccc3c4cc5c(cc4c[n+](C)c3c2cc1OC)OCO5
dose: 80.0 mg/kg/injection, schedule: Q01DX009 (ip), vehicle: saline
  T/C: 142 % of control

## CC1(c2ccc3ccccc3c2)OCC2(CCCCC2)CO1
dose: 200.0 mg/kg/injection, schedule: Q04DX002 (ip), vehicle: Klucel (hydroxypropylcellulose) (HPC)
  T/C: 140 % of control

## CC(C)C(CCN1CCCCC1)(CN=C(N)N)c1cccc2ccccc12 (stereo not drawn)
dose: 100.0 mg/kg/injection, schedule: Q01DX009 (ip), vehicle: saline
  survivor count: 0 of 6
[4]
  survivor count: 0 of 6
[8]
  survivor count: 0 of 6

## CC(C)NC(=O)Oc1cccc(NC(=O)C(C)C)c1
[7]
  survivor count: 6 of 6

## Clc1ccc(Cl)c(CBr)c1Cl
[7]
  survivor count: 3 of 6
[3]
  survivor count: 1 of 6

## C/C=C/CC(C/C=C/C)C1CC[N-]CC1.C/C=C/CC(C/C=C/C)C1CC[N-]CC1.[Cl][Pt+2]([Cl])([Cl])[Cl]
dose: 25.0 mg/kg/injection, schedule: Q01DX009 (ip), vehicle: other
  survivor count: 5 of 6
dose: 50.0 mg/kg/injection, schedule: Q01DX009 (ip), vehicle: other
  survivor count: 1 of 6

## CNC(=O)Oc1c([N+](=O)[O-])c([N+](=O)[O-])cc2ccccc12
[12]
  survivor count: 3 of 6
[13]
  survivor count: 0 of 6

## COC(=O)C1CCC(NC(=O)N(CCCl)N=O)CC1 (stereo not drawn)
dose: 67.0 mg/kg/injection, schedule: Q01DX001 (ip), vehicle: Klucel (hydroxypropylcellulose) (HPC)
  T/C: 137 % of control [9 of 10 alive]
[9]
  survivor count: 10 of 10
dose: 150.0 mg/kg/injection, schedule: Q01DX001 (ip), vehicle: Klucel (hydroxypropylcellulose) (HPC)
  survivor count: 9 of 10 and 10 of 10
dose: 225.0 mg/kg/injection, schedule: Q01DX001 (ip), vehicle: Klucel (hydroxypropylcellulose) (HPC)
  survivor count: 3 of 10 and 10 of 10
dose: 335.0 mg/kg/injection, schedule: Q01DX001 (ip), vehicle: Klucel (hydroxypropylcellulose) (HPC)
  survivor count: 0 of 10 and 1 of 10

## Cc1ccccc1-c1nc2c(N)nc(N)nc2nc1N
dose: 101.0 mg/kg/injection, schedule: Q01DX Z (ip), vehicle: carboxymethylcellulose (CMC)
  T/C: 126 % of control
dose: 202.0 mg/kg/injection, schedule: Q01DX Z (ip), vehicle: carboxymethylcellulose (CMC)
  T/C: 127 % of control

## O=C(O)c1ccc(CNCc2ccccc2)cc1
dose: 300.0 mg/kg/injection, schedule: Q01DX001 (ip), vehicle: saline
  survivor count: 2 of 6

## COc1ccc(CC2c3cc(OC)c(OC)cc3CC[N+]2(C)C)cc1OC (stereo not drawn)
[9]
  survivor count: 2 of 6
[10]
  survivor count: 0 of 6

## Cn1c(=O)c2[nH]c(C3CCCC3)nc2n(C)c1=O
[2]
  survivor count: 0 of 4

## CC(=O)OCC1OC(N2C(=O)/C(=C/c3c(Cl)cccc3Cl)SC2=S)C(OC(C)=O)C(OC(C)=O)C1OC(C)=O (stereo not drawn)
dose: 400.0 mg/kg/injection, schedule: Q01DX005 (ip), vehicle: other
  survivor count: 1 of 6

## S=c1cc(-c2ccc(Cl)cc2)ss1
dose: 400.0 mg/kg/injection, schedule: Q04DX003 (ip), vehicle: saline
  survivor count: 6 of 6

## C[N+](C)(C)Cc1ccco1
[4]
  survivor count: 4 of 6
[8]
  survivor count: 0 of 6

## O=C(CCl)c1ccc([N+](=O)[O-])o1
dose: 6.25 mg/kg/injection, schedule: Q01DX001 (ip), vehicle: Klucel (hydroxypropylcellulose) (HPC)
  survivor count: 3 of 6
dose: 12.5 mg/kg/injection, schedule: Q01DX001 (ip), vehicle: Klucel (hydroxypropylcellulose) (HPC)
  survivor count: 0 of 6
dose: 25.0 mg/kg/injection, schedule: Q01DX001 (ip), vehicle: Klucel (hydroxypropylcellulose) (HPC)
  survivor count: 0 of 6 and 1 of 6
dose: 50.0 mg/kg/injection, schedule: Q01DX001 (ip), vehicle: Klucel (hydroxypropylcellulose) (HPC)
  survivor count: 0 of 6
[9]
  survivor count: 0 of 6
[10]
  survivor count: 0 of 6
[11]
  survivor count: 0 of 6

## CC1(C)N=C1c1ccccc1
[5]
  survivor count: 1 of 3

## COc1ccc(/C(C)=N/N=C(\C)c2ccc(OC)cc2)cc1
[6]
  survivor count: 3 of 3

## OCC1(c2ccccc2)OC1(c1ccccc1)c1ccccc1 (stereo not drawn)
dose: 50.0 mg/kg/injection, schedule: Q04DX002 (ip), vehicle: Klucel (hydroxypropylcellulose) (HPC)
  survivor count: 1 of 3
dose: 100.0 mg/kg/injection, schedule: Q04DX002 (ip), vehicle: Klucel (hydroxypropylcellulose) (HPC)
  survivor count: 0 of 3

## CCCCNC(=NC)c1ccc(NC(=O)Nc2ccc(NC(=O)Nc3ccc(C(=NC)NCCCC)cc3)cc2)cc1
dose: 7.8 mg/kg/injection, schedule: Q01DX Z (ip), vehicle: methylcellulose (MC)
  survivor count: 0 of 6
dose: 15.6 mg/kg/injection, schedule: Q01DX Z (ip), vehicle: methylcellulose (MC)
  survivor count: 0 of 6 and 3 of 6
dose: 31.2 mg/kg/injection, schedule: Q01DX Z (ip), vehicle: methylcellulose (MC)
  survivor count: 0 of 6
dose: 62.5 mg/kg/injection, schedule: Q01DX Z (ip), vehicle: methylcellulose (MC)
  survivor count: 0 of 6
dose: 125.0 mg/kg/injection, schedule: Q01DX Z (ip), vehicle: methylcellulose (MC)
  survivor count: 0 of 6

## CNCCOC
dose: 200.0 mg/kg/injection, schedule: Q04DX002 (ip), vehicle: saline
  survivor count: 1 of 3
[5]
  survivor count: 0 of 3

## Brc1cccc[n+]1-c1cc(-[n+]2ccccc2Br)cc(-[n+]2ccccc2Br)c1
dose: 9.38 mg/kg/injection, schedule: Q01DX001 (ip), vehicle: other
  survivor count: 1 of 6
dose: 18.75 mg/kg/injection, schedule: Q01DX001 (ip), vehicle: other
  survivor count: 0 of 6
dose: 37.5 mg/kg/injection, schedule: Q01DX001 (ip), vehicle: other
  survivor count: 0 of 6
dose: 75.0 mg/kg/injection, schedule: Q01DX001 (ip), vehicle: other
  survivor count: 0 of 6
[12]
  survivor count: 0 of 6
[13]
  survivor count: 0 of 6
